Results reported in article PMC12077520.
Where two headings read alike, the source gives them in different places. Results are given in words; binding and its absence hold for the method and conditions named. In cells and extracts the contact can be indirect. A yes stands for co-enrichment or nearness to the bait. Other partners may have been found. A no says only that the protein was not detected with the bait.

The chains behind the UniProt entries cited, without tags or fusion partners. Residues count along the entry.
UniProt P54132: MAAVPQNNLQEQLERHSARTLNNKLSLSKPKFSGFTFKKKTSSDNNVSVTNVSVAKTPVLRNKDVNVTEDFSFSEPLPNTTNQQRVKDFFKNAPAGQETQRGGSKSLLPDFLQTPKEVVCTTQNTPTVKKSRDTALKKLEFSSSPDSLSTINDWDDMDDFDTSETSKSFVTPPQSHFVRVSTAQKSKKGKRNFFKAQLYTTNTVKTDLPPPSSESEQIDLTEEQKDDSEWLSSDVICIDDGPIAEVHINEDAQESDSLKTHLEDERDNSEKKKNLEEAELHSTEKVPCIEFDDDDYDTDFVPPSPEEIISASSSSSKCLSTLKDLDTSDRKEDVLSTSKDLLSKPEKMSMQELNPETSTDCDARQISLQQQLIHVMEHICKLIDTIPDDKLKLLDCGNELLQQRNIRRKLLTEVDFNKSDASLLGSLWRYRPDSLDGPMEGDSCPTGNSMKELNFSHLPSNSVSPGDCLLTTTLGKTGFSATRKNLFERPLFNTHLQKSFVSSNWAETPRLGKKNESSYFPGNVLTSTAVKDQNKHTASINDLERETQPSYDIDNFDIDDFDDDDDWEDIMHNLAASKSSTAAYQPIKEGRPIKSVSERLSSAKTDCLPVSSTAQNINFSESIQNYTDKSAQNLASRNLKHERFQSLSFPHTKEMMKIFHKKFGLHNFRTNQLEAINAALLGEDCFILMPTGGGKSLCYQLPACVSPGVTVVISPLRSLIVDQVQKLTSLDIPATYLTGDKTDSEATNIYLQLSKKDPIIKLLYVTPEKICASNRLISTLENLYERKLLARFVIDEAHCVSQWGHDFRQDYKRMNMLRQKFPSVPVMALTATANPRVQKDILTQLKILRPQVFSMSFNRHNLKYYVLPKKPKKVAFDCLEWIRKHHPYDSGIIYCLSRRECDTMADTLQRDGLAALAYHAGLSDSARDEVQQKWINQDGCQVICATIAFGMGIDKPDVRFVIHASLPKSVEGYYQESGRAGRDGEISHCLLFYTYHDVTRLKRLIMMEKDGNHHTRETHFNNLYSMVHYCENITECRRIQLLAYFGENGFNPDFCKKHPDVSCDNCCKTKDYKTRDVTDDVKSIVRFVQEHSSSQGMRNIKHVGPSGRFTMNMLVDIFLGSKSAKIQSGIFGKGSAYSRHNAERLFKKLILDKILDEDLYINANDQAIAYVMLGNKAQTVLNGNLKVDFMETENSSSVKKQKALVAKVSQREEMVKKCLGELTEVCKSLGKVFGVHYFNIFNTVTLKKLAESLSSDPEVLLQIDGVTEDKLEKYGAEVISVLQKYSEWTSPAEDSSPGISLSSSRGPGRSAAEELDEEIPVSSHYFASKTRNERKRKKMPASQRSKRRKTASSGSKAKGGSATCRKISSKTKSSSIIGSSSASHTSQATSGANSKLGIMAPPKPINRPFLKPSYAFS
UniProt Q15843, residues 1-76: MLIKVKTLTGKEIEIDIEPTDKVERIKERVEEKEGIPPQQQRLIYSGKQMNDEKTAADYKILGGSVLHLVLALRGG
UniProt O75925: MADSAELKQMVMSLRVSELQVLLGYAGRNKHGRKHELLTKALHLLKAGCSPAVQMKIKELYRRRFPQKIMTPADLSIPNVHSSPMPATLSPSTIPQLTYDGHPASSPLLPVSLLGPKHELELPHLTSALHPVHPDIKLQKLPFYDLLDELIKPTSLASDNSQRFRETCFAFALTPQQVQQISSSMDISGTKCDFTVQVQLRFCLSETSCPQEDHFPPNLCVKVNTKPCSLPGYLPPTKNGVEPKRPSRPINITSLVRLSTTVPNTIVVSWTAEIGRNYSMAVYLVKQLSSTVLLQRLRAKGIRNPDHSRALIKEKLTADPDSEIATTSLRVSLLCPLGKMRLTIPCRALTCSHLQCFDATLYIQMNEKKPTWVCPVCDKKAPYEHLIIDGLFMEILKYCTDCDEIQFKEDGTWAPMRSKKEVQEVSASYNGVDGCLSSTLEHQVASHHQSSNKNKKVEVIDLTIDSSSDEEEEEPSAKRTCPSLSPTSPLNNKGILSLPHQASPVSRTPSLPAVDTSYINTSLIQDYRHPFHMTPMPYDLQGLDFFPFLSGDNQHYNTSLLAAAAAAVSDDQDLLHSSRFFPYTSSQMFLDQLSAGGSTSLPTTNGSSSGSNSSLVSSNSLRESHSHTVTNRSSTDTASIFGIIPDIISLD
UniProt Q8IY92: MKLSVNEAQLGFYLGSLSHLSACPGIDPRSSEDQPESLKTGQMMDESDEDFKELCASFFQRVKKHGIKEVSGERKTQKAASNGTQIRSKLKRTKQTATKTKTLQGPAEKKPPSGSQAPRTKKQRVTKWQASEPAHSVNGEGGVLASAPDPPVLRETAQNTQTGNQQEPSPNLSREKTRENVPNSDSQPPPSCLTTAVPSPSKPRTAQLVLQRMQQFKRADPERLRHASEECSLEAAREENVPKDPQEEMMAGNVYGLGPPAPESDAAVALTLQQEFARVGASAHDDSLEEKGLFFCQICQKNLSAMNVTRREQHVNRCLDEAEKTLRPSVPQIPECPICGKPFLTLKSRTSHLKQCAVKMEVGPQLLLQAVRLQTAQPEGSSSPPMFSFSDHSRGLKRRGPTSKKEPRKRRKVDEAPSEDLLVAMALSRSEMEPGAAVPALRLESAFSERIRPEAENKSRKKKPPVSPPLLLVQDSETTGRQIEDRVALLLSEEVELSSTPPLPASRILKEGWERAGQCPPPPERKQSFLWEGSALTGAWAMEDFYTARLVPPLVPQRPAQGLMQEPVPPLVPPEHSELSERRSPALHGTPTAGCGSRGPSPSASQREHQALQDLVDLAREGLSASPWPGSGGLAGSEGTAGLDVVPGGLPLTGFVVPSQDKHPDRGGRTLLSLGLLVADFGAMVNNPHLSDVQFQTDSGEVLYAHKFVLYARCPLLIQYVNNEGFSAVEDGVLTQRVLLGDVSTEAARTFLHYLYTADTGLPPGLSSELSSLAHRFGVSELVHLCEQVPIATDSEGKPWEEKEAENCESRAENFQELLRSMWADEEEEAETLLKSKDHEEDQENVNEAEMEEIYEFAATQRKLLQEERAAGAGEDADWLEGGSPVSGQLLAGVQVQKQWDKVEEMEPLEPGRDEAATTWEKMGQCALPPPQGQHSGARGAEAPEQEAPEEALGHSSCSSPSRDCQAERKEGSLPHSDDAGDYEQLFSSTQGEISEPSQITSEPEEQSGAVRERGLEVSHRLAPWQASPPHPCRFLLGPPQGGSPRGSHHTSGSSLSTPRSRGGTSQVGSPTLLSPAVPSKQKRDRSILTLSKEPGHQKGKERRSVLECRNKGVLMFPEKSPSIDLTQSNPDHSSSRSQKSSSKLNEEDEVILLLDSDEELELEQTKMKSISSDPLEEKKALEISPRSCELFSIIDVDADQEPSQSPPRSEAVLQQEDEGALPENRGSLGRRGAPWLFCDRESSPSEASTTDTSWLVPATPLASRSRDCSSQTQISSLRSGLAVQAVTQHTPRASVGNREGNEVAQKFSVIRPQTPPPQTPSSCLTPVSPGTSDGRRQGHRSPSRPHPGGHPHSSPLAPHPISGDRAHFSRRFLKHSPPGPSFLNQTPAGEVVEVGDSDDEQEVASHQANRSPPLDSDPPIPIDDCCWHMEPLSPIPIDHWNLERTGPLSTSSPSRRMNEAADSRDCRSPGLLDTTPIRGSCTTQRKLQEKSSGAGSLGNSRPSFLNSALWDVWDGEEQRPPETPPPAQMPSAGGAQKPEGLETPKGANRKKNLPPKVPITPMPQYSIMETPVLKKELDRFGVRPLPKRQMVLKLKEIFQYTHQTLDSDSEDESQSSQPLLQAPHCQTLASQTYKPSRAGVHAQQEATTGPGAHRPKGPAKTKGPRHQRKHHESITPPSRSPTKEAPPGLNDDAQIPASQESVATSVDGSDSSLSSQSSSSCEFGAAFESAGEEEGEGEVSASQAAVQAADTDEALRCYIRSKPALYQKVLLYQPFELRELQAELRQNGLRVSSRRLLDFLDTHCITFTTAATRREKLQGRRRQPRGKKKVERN
UniProt Q15542: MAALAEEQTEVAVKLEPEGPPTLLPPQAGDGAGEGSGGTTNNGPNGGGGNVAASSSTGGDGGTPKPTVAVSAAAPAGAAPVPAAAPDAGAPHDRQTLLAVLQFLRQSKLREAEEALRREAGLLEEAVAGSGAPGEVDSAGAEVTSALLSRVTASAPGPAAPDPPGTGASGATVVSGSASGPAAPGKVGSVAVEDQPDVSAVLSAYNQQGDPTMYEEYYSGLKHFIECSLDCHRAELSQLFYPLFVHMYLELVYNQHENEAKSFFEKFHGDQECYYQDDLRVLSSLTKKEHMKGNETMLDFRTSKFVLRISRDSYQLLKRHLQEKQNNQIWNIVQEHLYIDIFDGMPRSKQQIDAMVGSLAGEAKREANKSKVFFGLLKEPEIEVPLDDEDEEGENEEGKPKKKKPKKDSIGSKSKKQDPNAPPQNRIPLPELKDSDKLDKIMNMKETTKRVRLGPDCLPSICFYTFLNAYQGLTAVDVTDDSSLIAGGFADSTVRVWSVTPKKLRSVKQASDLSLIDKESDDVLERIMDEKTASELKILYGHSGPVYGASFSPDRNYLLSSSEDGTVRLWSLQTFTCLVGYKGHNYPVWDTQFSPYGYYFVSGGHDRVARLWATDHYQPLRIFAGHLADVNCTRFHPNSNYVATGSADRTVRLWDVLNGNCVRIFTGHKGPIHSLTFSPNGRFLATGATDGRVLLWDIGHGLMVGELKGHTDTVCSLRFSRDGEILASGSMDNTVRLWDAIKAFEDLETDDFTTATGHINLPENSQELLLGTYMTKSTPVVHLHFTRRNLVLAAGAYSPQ
UniProt Q5VZL5: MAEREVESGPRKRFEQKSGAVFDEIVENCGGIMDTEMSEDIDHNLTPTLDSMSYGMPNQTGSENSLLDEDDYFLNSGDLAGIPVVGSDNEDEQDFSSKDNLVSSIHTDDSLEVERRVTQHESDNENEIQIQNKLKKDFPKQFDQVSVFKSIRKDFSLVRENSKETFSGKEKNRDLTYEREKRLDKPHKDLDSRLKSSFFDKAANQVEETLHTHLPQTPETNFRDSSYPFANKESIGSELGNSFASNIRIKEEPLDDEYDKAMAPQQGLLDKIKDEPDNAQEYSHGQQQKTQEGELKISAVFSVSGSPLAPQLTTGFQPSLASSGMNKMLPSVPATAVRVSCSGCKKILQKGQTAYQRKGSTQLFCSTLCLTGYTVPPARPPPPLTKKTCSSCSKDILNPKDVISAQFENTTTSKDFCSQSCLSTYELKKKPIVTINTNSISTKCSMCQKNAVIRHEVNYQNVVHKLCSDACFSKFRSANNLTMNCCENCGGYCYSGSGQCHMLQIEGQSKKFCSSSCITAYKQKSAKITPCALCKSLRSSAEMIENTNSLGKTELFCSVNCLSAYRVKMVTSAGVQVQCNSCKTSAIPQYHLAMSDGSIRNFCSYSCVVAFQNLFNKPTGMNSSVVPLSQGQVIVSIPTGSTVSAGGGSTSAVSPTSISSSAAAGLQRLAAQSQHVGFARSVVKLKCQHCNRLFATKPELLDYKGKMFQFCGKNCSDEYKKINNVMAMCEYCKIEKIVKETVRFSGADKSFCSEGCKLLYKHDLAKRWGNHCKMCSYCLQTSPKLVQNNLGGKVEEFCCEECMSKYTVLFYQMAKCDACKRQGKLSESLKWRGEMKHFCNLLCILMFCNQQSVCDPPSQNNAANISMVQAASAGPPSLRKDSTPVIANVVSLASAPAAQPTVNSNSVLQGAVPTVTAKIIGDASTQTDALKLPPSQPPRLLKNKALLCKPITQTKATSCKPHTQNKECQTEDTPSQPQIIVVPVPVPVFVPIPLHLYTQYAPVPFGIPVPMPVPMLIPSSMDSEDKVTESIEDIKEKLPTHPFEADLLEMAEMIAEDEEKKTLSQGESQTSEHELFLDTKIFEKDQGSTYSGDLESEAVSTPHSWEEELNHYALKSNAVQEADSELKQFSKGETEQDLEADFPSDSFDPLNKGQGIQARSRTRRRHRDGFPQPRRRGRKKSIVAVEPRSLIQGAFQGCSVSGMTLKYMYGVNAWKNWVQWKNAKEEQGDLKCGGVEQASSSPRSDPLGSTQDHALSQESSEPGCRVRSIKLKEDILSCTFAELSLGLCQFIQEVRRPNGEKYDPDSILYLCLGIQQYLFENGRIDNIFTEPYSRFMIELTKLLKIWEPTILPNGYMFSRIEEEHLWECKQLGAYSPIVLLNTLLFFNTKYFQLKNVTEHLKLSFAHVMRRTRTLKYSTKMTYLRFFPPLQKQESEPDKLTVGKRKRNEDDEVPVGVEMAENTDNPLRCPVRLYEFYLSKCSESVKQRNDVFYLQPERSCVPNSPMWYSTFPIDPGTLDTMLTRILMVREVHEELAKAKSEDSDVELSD

B1: ZMYM5 (protein, UniProt Q9UJ78 1-669)
chain: MEKCSVGGLELTEQTPALLGNMAMATSLMDIGDSFGHPACPLVSRSRNSPVEDDDDDDDVVFIESIQPPSISAPAIADQRNFIFASSKNEKPQGNYSVIPPSSRDLASQKGNISETIVIDDEEDIETNGGAEKKSSCFIEWGLPGTKNKTNDLDFSTSSLSRSKTKTGVRPFNPGRMNVAGDLFQNGEFATHHSPDSWISQSASFPSNQKQPGVDSLSPVALLRKQNFQPTAQQQLTKPAKITCANCKKPLQKGQTAYQRKGSAHLFCSTTCLSSFSHKRTQNTRSIICKKDASTKKANVILPVESSKSFQEFYSTSCLSPCENNWNLKKGVFNKSRCTICSKLAEIRHEVSVNNVTHKLCSNHCFNKYRLANGLIMNCCEHCGEYMPSKSTGNNILVIGGQQKRFCCQSCINEYKQMMETKSKKLTASENRKRNAFREENEKQLYGSSNTLLKKIEGIPEKKEKTSQLQLSVECGTDTLLIQENVNLPPSSTSTIADTFQEQLEEKNFEDSIVPVVLSADPGTWPRILNIKQRDTLVENVPPQVRNFNFPKDNTGRKFSETYYTRILPNGEKTTRSWLLYSTSKDSVFCLYCKLFGEGKNQLKNENGCKDWQHLSHILSKHEESEMHVNNSVKYSKLKSDLKKNKAIDAAEHRLYENEKNDGVLLLYT
B2: ZMYM3 (protein, UniProt Q14202 1-1370)
chain: MDPSDFPSPFDPLTLPEKPLAGDLPVDMEFGEDLLESQTAPTRGWAPPGPSPSSGALDLLDTPAGLEKDPGVLDGATELLGLGGLLYKAPSPPEVDHGPEGTLAWDAGDQTLEPGPGGQTPEVVPPDPGAGANSCSPEGLLEPLAPDSPITLQSPHIEEEETTSIATARRGSPGQEEELPQGQPQSPNAPPSPSVGETLGDGINSSQTKPGGSSPPAHPSLPGDGLTAKASEKPPERKRSERVRRAEPPKPEVVDSTESIPVSDEDSDAMVDDPNDEDFVPFRPRRSPRMSLRSSVSQRAGRSAVGTKMTCAHCRTPLQKGQTAYQRKGLPQLFCSSSCLTTFSKKPSGKKTCTFCKKEIWNTKDSVVAQTGSGGSFHEFCTSVCLSLYEAQQQRPIPQSGDPADATRCSICQKTGEVLHEVSNGSVVHRLCSDSCFSKFRANKGLKTNCCDQCGAYIYTKTGSPGPELLFHEGQQKRFCNTTCLGAYKKKNTRVYPCVWCKTLCKNFEMLSHVDRNGKTSLFCSLCCTTSYKVKQAGLTGPPRPCSFCRRSLSDPCYYNKVDRTVYQFCSPSCWTKFQRTSPEGGIHLSCHYCHSLFSGKPEVLDWQDQVFQFCCRDCCEDFKRLRGVVSQCEHCRQEKLLHEKLRFSGVEKSFCSEGCVLLYKQDFTKKLGLCCITCTYCSQTCQRGVTEQLDGSTWDFCSEDCKSKYLLWYCKAARCHACKRQGKLLETIHWRGQIRHFCNQQCLLRFYSQQNQPNLDTQSGPESLLNSQSPESKPQTPSQTKVENSNTVRTPEENGNLGKIPVKTRSAPTAPTPPPPPPPATPRKNKAAMCKPLMQNRGVSCKVEMKSKGSQTEEWKPQVIVLPIPVPIFVPVPMHLYCQKVPVPFSMPIPVPVPMFLPTTLESTDKIVETIEELKVKIPSNPLEADILAMAEMIAEAEELDKASSDLCDLVSNQSAEGLLEDCDLFGPARDDVLAMAVKMANVLDEPGQDLEADFPKNPLDINPSVDFLFDCGLVGPEDVSTEQDLPRTMRKGQKRLVLSESCSRDSMSSQPSCTGLNYSYGVNAWKCWVQSKYANGETSKGDELRFGPKPMRIKEDILACSAAELNYGLAQFVREITRPNGERYEPDSIYYLCLGIQQYLLENNRMVNIFTDLYYLTFVQELNKSLSTWQPTLLPNNTVFSRVEEEHLWECKQLGVYSPFVLLNTLMFFNTKFFGLQTAEEHMQLSFTNVVRQSRKCTTPRGTTKVVSIRYYAPVRQRKGRDTGPGKRKREDEAPILEQRENRMNPLRCPVKFYEFYLSKCPESLRTRNDVFYLQPERSCIAESPLWYSVIPMDRSMLESMLNRILAVREIYEELGRPGEEDLD
B3: ZMYM2 (protein, UniProt Q9UBW7 1-1377)
chain: MDTSSVGGLELTDQTPVLLGSTAMATSLTNVGNSFSGPANPLVSRSNKFQNSSVEDDDDVVFIEPVQPPPPSVPVVADQRTITFTSSKNEELQGNDSKITPSSKELASQKGSVSETIVIDDEEDMETNQGQEKNSSNFIERRPPETKNRTNDVDFSTSSFSRSKVNAGMGNSGITTEPDSEIQIANVTTLETGVSSVNDGQLENTDGRDMNLMITHVTSLQNTNLGDVSNGLQSSNFGVNIQTYTPSLTSQTKTGVGPFNPGRMNVAGDVFQNGESATHHNPDSWISQSASFPRNQKQPGVDSLSPVASLPKQIFQPSVQQQPTKPVKVTCANCKKPLQKGQTAYQRKGSAHLFCSTTCLSSFSHKPAPKKLCVMCKKDITTMKGTIVAQVDSSESFQEFCSTSCLSLYEDKQNPTKGALNKSRCTICGKLTEIRHEVSFKNMTHKLCSDHCFNRYRMANGLIMNCCEQCGEYLPSKGAGNNVLVIDGQQKRFCCQSCVSEYKQVGSHPSFLKEVRDHMQDSFLMQPEKYGKLTTCTGCRTQCRFFDMTQCIGPNGYMEPYCSTACMNSHKTKYAKSQSLGIICHFCKRNSLPQYQATMPDGKLYNFCNSSCVAKFQALSMQSSPNGQFVAPSDIQLKCNYCKNSFCSKPEILEWENKVHQFCSKTCSDDYKKLHCIVTYCEYCQEEKTLHETVNFSGVKRPFCSEGCKLLYKQDFARRLGLRCVTCNYCSQLCKKGATKELDGVVRDFCSEDCCKKFQDWYYKAARCDCCKSQGTLKERVQWRGEMKHFCDQHCLLRFYCQQNEPNMTTQKGPENLHYDQGCQTSRTKMTGSAPPPSPTPNKEMKNKAVLCKPLTMTKATYCKPHMQTKSCQTDDTWRTEYVPVPIPVPVYIPVPMHMYSQNIPVPTTVPVPVPVPVFLPAPLDSSEKIPAAIEELKSKVSSDALDTELLTMTDMMSEDEGKTETTNINSVIIETDIIGSDLLKNSDPETQSSMPDVPYEPDLDIEIDFPRAAEELDMENEFLLPPVFGEEYEEQPRPRSKKKGAKRKAVSGYQSHDDSSDNSECSFPFKYTYGVNAWKHWVKTRQLDEDLLVLDELKSSKSVKLKEDLLSHTTAELNYGLAHFVNEIRRPNGENYAPDSIYYLCLGIQEYLCGSNRKDNIFIDPGYQTFEQELNKILRSWQPSILPDGSIFSRVEEDYLWRIKQLGSHSPVALLNTLFYFNTKYFGLKTVEQHLRLSFGTVFRHWKKNPLTMENKACLRYQVSSLCGTDNEDKITTGKRKHEDDEPVFEQIENTANPSRCPVKMFECYLSKSPQNLNQRMDVFYLQPECSSSTDSPVWYTSTSLDRNTLENMLVRVLLVKDIYDKDNYELDEDTD

What was measured:
Assay in all cases: affinity purification with mass spectrometry; 100 ug His10-SUMO2/3 WT, IKR or QFI on Ni-NTA beads, incubated with whole-cell HeLa lysate 2 h at 4°C in 50 mM tris pH 7.5, 150 mM NaCl, 0.5% NP-40, 50 mM imidazole; eluted with 8 M urea; LC-MS/MS, label-free quantification against uncoated beads (t test, FDR 0.05), n = 4; only the target purified
[1] = target: T1, His10-SUMO2 QFI (Q30A-F31A-I33A) (human (from the printed UniProt accession)) (UniProt P55854)
[2] = target: T2, His10-SUMO3 QFI (Q31A-F32A-I34A) (human (from the printed UniProt accession)) (UniProt P61956)
[3] = target: T3, His10-SUMO3 IKR (I34A-K35A-R36A) (human (from the printed UniProt accession)) (UniProt P61956)
[4] = target: T4, His10-SUMO2 IKR (I33A-K34A-R35A) (human (from the printed UniProt accession)) (UniProt P55854)
[5] = target: T1, His10-SUMO2 QFI (Q30A-F31A-I33A) (human); remark: listed apart in the source
[6] = target: T4, His10-SUMO2 IKR (I33A-K34A-R35A) (human); remark: listed apart in the source
[7] = target: T2, His10-SUMO3 QFI (Q31A-F32A-I34A) (human); remark: listed apart in the source
[8] = target: T3, His10-SUMO3 IKR (I34A-K35A-R36A) (human); remark: listed apart in the source

Row | Molecule | binding [1] | binding [2] | binding [3] | binding [4] | binding [5] | binding [6] | binding [7] | binding [8]
1 | BLM (from UniProt P54132 1-1417) | no binding | no binding | no binding | no binding |  |  |  | 
2 | NEDD8 (from UniProt Q15843 1-76) | no binding |  |  | no binding |  |  |  | 
3 | PIAS1 (from UniProt O75925 1-651) | no binding | no binding | no binding | no binding |  |  |  | 
4 | RANBP2 (from UniProt P49792 1-3224) | no binding |  |  | no binding |  |  |  | 
5 | SENP3 (from UniProt Q9H4L4 1-574) (enzyme) | no binding |  |  | binds |  |  |  | 
6 | SLX4 (from UniProt Q8IY92 1-1834) | no binding | no binding | no binding | no binding |  |  |  | 
7 | TAF5 (from UniProt Q15542 1-800) | binds |  |  | binds |  |  |  | 
8 | ZMYM4 (from UniProt Q5VZL5 1-1548) | no binding |  |  | no binding |  |  |  | 
9 | valosin-containing protein (VCP) (from UniProt P55072 1-806) | binds | binds | binds | binds |  |  |  | 
10 | B1 |  |  |  |  | no binding | no binding |  | 
11 | B2 |  |  |  |  | no binding | no binding | no binding | no binding
12 | B3 |  |  |  |  | no binding | no binding | no binding | no binding
